Protein sequences, listed by entry. Tags and fused reporters are not part of them. Residues count along the entry.
UniProt Q8WYQ5, 285-750: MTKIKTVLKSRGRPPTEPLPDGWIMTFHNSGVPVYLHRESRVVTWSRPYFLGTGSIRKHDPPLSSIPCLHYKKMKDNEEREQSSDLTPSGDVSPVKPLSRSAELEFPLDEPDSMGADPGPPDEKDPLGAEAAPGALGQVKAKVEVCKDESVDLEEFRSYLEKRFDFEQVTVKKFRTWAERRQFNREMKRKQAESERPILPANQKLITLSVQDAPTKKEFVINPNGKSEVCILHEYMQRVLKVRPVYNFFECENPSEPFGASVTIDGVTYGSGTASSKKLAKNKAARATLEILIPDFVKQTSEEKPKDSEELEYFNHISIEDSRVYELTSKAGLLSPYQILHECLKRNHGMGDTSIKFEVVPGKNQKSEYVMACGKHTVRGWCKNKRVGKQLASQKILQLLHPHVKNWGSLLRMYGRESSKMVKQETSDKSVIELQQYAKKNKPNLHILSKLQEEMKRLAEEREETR
UniProt Q8WYQ5, 285-750 W461A/A462G/E463Q: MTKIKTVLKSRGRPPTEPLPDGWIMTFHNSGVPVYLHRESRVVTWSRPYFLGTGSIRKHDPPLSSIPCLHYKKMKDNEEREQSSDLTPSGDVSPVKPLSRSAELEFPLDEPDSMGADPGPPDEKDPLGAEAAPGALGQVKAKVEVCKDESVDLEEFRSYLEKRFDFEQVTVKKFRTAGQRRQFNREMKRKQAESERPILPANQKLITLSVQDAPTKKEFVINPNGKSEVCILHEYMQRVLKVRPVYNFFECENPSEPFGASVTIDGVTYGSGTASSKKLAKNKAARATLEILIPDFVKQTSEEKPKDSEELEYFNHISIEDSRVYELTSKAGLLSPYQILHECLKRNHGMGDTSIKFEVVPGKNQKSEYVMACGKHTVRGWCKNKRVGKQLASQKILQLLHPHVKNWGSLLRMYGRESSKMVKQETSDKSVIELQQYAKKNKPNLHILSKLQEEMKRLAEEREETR
UniProt Q8WYQ5, 285-478: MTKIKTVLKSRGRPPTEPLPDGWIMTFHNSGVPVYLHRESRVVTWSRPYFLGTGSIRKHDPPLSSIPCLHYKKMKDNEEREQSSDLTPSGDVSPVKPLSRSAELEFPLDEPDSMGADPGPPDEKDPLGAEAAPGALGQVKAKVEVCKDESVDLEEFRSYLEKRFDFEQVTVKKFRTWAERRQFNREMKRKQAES

According to PMC7334207:

Tests used:
Test in all cases: EMSA
G4 WT-WT (Homo sapiens) = G4 WT-WT (Homo sapiens) (UniProt Q8WYQ5); details: 0-2.5 uM protein; 50 mM Tris-HCl pH 7.5, 250 mM NaCl, 10% glycerol, 0.2 mg/ml BSA, 1 mM DTT, 2 mM EDTA; 1 uM RNA in 10 uL; on ice 60 min; 4% native PAGE at 4 C, ethidium bromide stain; recombinant protein; residues 285-750; protein details: N-terminal GFP and 10xHis; probe letters rebuilt from the primers and the genome
[1] = test system: G4 WT-mut1 hybrid dimer W461A,A462G,E463Q (Homo sapiens); details: 1-2.5 uM protein, similar to WT-WT; 50 mM Tris-HCl pH 7.5, 250 mM NaCl, 10% glycerol, 0.2 mg/ml BSA, 1 mM DTT, 2 mM EDTA; 1 uM RNA in 10 uL; on ice 60 min; 4% native PAGE at 4 C, ethidium bromide stain; recombinant protein; probe letters rebuilt from the primers and the genome
[2] = target: G4 mut1-mut1 W461A,A462G,E463Q (Homo sapiens) (UniProt Q8WYQ5); details: 1-2.5 uM protein; 50 mM Tris-HCl pH 7.5, 250 mM NaCl, 10% glycerol, 0.2 mg/ml BSA, 1 mM DTT, 2 mM EDTA; 1 uM RNA in 10 uL; on ice 60 min; 4% native PAGE at 4 C, ethidium bromide stain; recombinant protein; residues 285-750; protein details: N-terminal GFP and 10xHis (as G4); probe letters rebuilt from the primers and the genome
[3] = target: G478 (Rhed) (Homo sapiens) (UniProt Q8WYQ5); details: 50 mM Tris-HCl pH 7.5, 250 mM NaCl, 10% glycerol, 0.2 mg/ml BSA, 1 mM DTT, 2 mM EDTA; 1 uM RNA in 10 uL; on ice 60 min; 4% native PAGE at 4 C, ethidium bromide stain; recombinant protein; residues 285-478; probe letters rebuilt from the primers and the genome

GGGUAUUGCUGUUGACAGUGAGCGACUGUAAACAUCCUCGACUGGAAGCUGUGAAGCCACAGAUGGGCUUUCAGUCGGAUGUUUGCAGCUGCCUACUGCCUCGGACUUCA [pri-mir-30a_UGU (WT)]
binding result (G4 WT-WT (Homo sapiens)): binds
binding result [1]: binds
binding result [2]: binds more weakly
binding result [3]: binds

Construct, isoform or probe ends are uncertain for at least one entry. For some of these results: Weaker means in comparison with the reference protein, sequence or condition of that experiment.
